Results published in PMC4860962.
No constants are given. Whether binding was seen depends on the method and setting. For some assays here: Binding seen in cells or lysates may run through a third protein. Some entries that bind do so weakly or less than the wild type. For some assays here: Tags and fused reporters may be left off the sequences shown.

Amino acid sequences for entries named in this document (tags omitted). A change or cut given only in a name is not applied to a line headed by its entry. Residues count along the entry.
UniProt Q00987: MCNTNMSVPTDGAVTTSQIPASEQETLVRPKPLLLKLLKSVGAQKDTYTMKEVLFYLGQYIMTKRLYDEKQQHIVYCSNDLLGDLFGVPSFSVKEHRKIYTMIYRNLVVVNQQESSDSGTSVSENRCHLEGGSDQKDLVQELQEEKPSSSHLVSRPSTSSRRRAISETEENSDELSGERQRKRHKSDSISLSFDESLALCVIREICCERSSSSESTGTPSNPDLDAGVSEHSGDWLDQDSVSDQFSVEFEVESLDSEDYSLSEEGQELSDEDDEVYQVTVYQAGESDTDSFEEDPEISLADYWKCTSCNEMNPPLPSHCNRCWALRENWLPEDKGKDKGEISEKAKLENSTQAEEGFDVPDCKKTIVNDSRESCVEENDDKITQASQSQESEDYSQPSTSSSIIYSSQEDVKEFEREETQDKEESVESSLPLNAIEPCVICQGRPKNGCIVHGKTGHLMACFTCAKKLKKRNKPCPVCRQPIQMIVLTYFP
GST-Mdm2 p53-binding domain (1–150): residues 1-150 of Q00987
GST-Mdm2 middle acid domain (210–300): residues 210-300 of Q00987
GST-Mdm2 C-terminal RING domain-containing region (425–491): residues 425-491 of Q00987

Key:
[1] = biological target: Mdm2, endogenous in HCT116 cells and their derivatives (human (endogenous in HCT116)) (UniProt Q00987); assay: co-IP; endogenous proteins; BC100 whole-cell extracts (HCT116, HCT116 p53^-/-, U2OS) precipitated with anti-p53 (1801), anti-Mdm2 (4B11) or mouse IgG overnight at 4 °C, Protein A/G agarose; western blot
[2] = biological target: GST-Mdm2 C-terminal RING domain-containing region (425–491) (human) (UniProt Q00987); assay: pull-down; 2 μg GST or GST-fusion protein on 10 μl GST beads, purified FH-SMG7 in solution; BC100 buffer with 1 μg/μl BSA, overnight at 4 °C, five washes; western blot; both purified
[3] = biological target: full-length GST-Mdm2 (human) (UniProt Q00987); assay: as above
[4] = biological target: GST-Mdm2 middle acid domain (210–300) (human) (UniProt Q00987); assay: as above
[5] = biological target: GST-Mdm2 p53-binding domain (1–150) (human) (UniProt Q00987); assay: as above

binding [1]	binding [2]	binding [3]	binding [4]	binding [5]	Binder
binds					SMG7 (suppressor with morphological defects in genitalia 7), endogenous in HCT116 cells and their derivatives (protein, UniProt Q92540-2 1-1091) MSLQSAQYLRQAEVLKADMTDSKLGPAEVWTSRQALQDLYQKMLVTDLEYALDKKVEQDLWNHAFKNQITTLQGQAKNRANPNRSEVQANLSLFLEAASGFYTQLLQELCTVFNVDLPCRVKSSQLGIISNKQTHTSAIVKPQSSSCSYICQHCLVHLGDIARYRNQTSQAESYYRHAAQLVPSNGQPYNQLAILASSKGDHLTTIFYYCRSIAVKFPFPAASTNLQKALSKALESRDEVKTKWGVSDFIKAFIKFHGHVYLSKSLEKLSPLREKLEEQFKRLLFQKAFNSQQLVHVTVINLFQLHHLRDFSNETEQHTYSQDEQLCWTQLLALFMSFLGILCKCPLQNESQEESYNAYPLPAVKVSMDWLRLRPRVFQEAVVDERQYIWPWLISLLNSFHPHEEDLSSISATPLPEEFELQGFLALRPSFRNLDFSKGHQGITGDKEGQQRRIRQQRLISIGKWIADNQPRLIQCENEVGKLLFITEIPELILEDPSEAKENLILQETSVIESLAADGSPGLKSVLSTSRNLSNNCDTGEKPVVTFKENIKTREVNRDQGRSFPPKEVKSQTELRKTPVSEARKTPVTQTPTQASNSQFIPIHHPGAFPPLPSRPGFPPPTYVIPPPVAFSMGSGYTFPAGVSVPGTFLQPTAHSPAGNQVQAGKQSHIPYSQQRPSGPGPMNQGPQQSQPPSQQPLTSLPAQPTAQSTSQLQVQALTQQQQSPTKAVPALGKSPPHHSGFQQYQQADASKQLWNPPQVQGPLGKIMPVKQPYYLQTQDPIKLFEPSLQPPVMQQQPLEKKMKPFPMEPYNHNPSEVKVPEFYWDSSYSMADNRSVMAQQANIDRRGKRSPGVFRPEQDPVPRMPFEKSLLEKPSELMSHSSSFLSLTGFSLNQERYPNNSMFNEVYGKNLTSSSKAELSPSMAPQETSLYSLFEGTPWSPSLPASSDHSTPASQSPHSSNPSSLPSSPPTHNHNSVPFSNFGPIGTPDNRDRRTADRWKTDKPAMGGFGIDYLSATSSSESSWHQASTPSGTWTGHGPSMEDSSAVLMESLKSIWSSSMMHPGPSALEQLLMQQKQKQQRGQGTMNPPH
	binds	binds	no binding	binds weakly	purified Flag/HA-SMG7 (protein, UniProt Q92540-2 1-1091) MSLQSAQYLRQAEVLKADMTDSKLGPAEVWTSRQALQDLYQKMLVTDLEYALDKKVEQDLWNHAFKNQITTLQGQAKNRANPNRSEVQANLSLFLEAASGFYTQLLQELCTVFNVDLPCRVKSSQLGIISNKQTHTSAIVKPQSSSCSYICQHCLVHLGDIARYRNQTSQAESYYRHAAQLVPSNGQPYNQLAILASSKGDHLTTIFYYCRSIAVKFPFPAASTNLQKALSKALESRDEVKTKWGVSDFIKAFIKFHGHVYLSKSLEKLSPLREKLEEQFKRLLFQKAFNSQQLVHVTVINLFQLHHLRDFSNETEQHTYSQDEQLCWTQLLALFMSFLGILCKCPLQNESQEESYNAYPLPAVKVSMDWLRLRPRVFQEAVVDERQYIWPWLISLLNSFHPHEEDLSSISATPLPEEFELQGFLALRPSFRNLDFSKGHQGITGDKEGQQRRIRQQRLISIGKWIADNQPRLIQCENEVGKLLFITEIPELILEDPSEAKENLILQETSVIESLAADGSPGLKSVLSTSRNLSNNCDTGEKPVVTFKENIKTREVNRDQGRSFPPKEVKSQTELRKTPVSEARKTPVTQTPTQASNSQFIPIHHPGAFPPLPSRPGFPPPTYVIPPPVAFSMGSGYTFPAGVSVPGTFLQPTAHSPAGNQVQAGKQSHIPYSQQRPSGPGPMNQGPQQSQPPSQQPLTSLPAQPTAQSTSQLQVQALTQQQQSPTKAVPALGKSPPHHSGFQQYQQADASKQLWNPPQVQGPLGKIMPVKQPYYLQTQDPIKLFEPSLQPPVMQQQPLEKKMKPFPMEPYNHNPSEVKVPEFYWDSSYSMADNRSVMAQQANIDRRGKRSPGVFRPEQDPVPRMPFEKSLLEKPSELMSHSSSFLSLTGFSLNQERYPNNSMFNEVYGKNLTSSSKAELSPSMAPQETSLYSLFEGTPWSPSLPASSDHSTPASQSPHSSNPSSLPSSPPTHNHNSVPFSNFGPIGTPDNRDRRTADRWKTDKPAMGGFGIDYLSATSSSESSWHQASTPSGTWTGHGPSMEDSSAVLMESLKSIWSSSMMHPGPSALEQLLMQQKQKQQRGQGTMNPPH
